MtTrpRS: 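Enzyme assay of tryptophanyl-tRNA synthetase; the read-out is not stated. Target: Tryptophan-tRNA ligase, Mycobacterium tuberculosis (UniProt P9WFT3). Tested at 10 µM. Higher most likely means stronger inhibition; the record gives no direction and few retests gave an IC50. About 65,000 compounds were tested under these conditions; 0.098% (about 64) showed 50% or more at least once.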
Pks13 thioesterase: 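Enzyme assay of the thioesterase domain of polyketide synthase 13; the read-out is not stated. Target: Polyketide synthase Pks13, Mycobacterium tuberculosis (UniProt I6X8D2). Tested at 30 µM. Higher reads as stronger inhibition (inferred from which compounds were picked for retests). Of about 67,000 compounds tested this way, about 300 (0.46%) reached 50% or more in at least one test.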

Chains of the proteins cited; added tags and fusions are not shown.
UniProt P9WFT3, whole entry: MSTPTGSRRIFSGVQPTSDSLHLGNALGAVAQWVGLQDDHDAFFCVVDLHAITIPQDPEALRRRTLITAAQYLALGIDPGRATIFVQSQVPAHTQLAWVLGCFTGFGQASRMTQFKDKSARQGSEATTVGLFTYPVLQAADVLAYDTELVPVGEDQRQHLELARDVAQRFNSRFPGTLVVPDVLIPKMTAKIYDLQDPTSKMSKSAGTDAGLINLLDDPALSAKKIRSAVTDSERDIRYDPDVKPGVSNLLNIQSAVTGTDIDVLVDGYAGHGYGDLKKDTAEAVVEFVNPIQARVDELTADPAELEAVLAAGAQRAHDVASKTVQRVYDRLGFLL
UniProt I6X8D2, whole entry: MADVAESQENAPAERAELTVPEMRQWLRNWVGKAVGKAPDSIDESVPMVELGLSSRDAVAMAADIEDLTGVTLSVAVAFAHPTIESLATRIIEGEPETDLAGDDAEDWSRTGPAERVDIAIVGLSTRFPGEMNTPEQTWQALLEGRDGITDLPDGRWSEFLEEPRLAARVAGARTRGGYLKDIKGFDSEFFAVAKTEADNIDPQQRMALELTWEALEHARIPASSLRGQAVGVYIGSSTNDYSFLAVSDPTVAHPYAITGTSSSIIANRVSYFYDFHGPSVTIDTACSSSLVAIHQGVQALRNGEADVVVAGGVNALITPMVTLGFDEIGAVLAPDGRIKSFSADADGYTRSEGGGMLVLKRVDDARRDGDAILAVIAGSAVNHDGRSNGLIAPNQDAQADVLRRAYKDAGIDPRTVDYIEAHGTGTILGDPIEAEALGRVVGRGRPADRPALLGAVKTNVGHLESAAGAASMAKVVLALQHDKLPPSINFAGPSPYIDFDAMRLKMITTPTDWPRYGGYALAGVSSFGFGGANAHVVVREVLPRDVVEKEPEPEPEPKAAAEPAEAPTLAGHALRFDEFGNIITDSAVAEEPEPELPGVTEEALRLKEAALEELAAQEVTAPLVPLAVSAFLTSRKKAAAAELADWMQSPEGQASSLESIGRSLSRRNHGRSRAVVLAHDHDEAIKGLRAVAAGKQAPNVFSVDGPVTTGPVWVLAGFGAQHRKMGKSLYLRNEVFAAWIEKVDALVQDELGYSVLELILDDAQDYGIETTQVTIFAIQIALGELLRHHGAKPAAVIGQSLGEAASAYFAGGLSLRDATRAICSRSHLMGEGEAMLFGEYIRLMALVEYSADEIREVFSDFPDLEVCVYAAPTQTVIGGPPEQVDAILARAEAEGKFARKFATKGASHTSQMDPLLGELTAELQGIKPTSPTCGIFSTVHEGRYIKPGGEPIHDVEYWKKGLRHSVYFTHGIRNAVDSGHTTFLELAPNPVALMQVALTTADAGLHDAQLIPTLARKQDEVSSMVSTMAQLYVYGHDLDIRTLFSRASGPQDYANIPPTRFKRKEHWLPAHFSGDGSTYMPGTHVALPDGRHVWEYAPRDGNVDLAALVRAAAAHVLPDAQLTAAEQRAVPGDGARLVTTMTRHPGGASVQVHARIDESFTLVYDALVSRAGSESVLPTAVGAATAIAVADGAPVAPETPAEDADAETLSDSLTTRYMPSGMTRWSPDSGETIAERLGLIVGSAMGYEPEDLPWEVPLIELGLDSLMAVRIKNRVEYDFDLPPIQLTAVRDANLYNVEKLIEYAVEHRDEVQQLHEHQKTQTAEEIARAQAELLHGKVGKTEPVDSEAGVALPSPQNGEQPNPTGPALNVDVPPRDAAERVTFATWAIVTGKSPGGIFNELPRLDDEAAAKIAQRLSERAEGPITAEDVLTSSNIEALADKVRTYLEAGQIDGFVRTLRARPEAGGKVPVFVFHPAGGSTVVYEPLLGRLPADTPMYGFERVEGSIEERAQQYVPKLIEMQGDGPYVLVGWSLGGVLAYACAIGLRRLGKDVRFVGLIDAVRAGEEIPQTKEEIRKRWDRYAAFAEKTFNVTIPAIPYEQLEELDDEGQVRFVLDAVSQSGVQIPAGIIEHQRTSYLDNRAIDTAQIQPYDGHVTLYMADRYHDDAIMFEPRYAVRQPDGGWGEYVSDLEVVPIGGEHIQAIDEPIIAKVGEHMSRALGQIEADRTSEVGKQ

Values are the deposited “Percent Effect”, in %.
How 0% and 100% were set is not recorded. Most values in the screen are low, and negative values occur.
The compounds are a random part of those screened.

For CS(=O)(=O)N1CCOCC2(CCN(Cc3ccc[nH]3)CC2)C1 the result was MtTrpRS: -4.554%; Pks13 thioesterase: -17.26%. Result for COCCC1COC2(CCN(C(=O)c3ccccc3)CC2)C1 (configuration not stated) was MtTrpRS: -2.815%; Pks13 thioesterase: -22.99%. With COCCC(=O)N1CCN(CC2CC2)c2nc(C)ccc2C1 the screen gave MtTrpRS: 9.698%; Pks13 thioesterase: 12.07%. For CN(C)C(=O)N1CC2(CCNCC2)c2cc(F)ccc21 the result was MtTrpRS: -5.844%; Pks13 thioesterase: -8.104%. CCCn1nc2c(cc1=O)CN(CC1CCCCO1)CC2 (configuration not stated) read MtTrpRS: -2.006%; Pks13 thioesterase: -11.21%. Cn1cc(C#N)cc1C(=O)N1CCC2(CCCN(CC3CCC3)C2=O)C1 (configuration not stated) read MtTrpRS: 0.404%; Pks13 thioesterase: -5.566%.

For CCn1nc2c(cc1=O)CN(CCCN1CCCC1=O)CC2 the result was MtTrpRS: 11.3%; Pks13 thioesterase: 21.51%. CN(C)C(=O)Cn1cc(C(=O)NCCc2ccc(C(F)(F)F)cc2)nn1 read MtTrpRS: -2.513%; Pks13 thioesterase: -5.556%. Result for Cn1cnnc1C1CCCN(c2nc3ccccc3o2)C1 (configuration not stated) was MtTrpRS: -2.977%. Result for CCn1cc2c(n1)C(COC)CN(C(=O)COc1ccccc1)C2 (configuration not stated) was MtTrpRS: -2.948%; Pks13 thioesterase: -5.871%. For Cc1oncc1C(=O)N1C[C@H](OCc2ccccn2)[C@H]2OCCC[C@H]21 the result was MtTrpRS: 5.809%; Pks13 thioesterase: -0.4803%. With Cc1ccc(-c2ccnc(NC(c3ncccc3C)C3CC3)n2)c(C)n1 (configuration not stated) the screen gave MtTrpRS: 4.515%; Pks13 thioesterase: -1.142%.

COCc1nnc(-c2cccc(C(=O)N(C(C)C)C3CCC3)c2)o1 read MtTrpRS: 3.062%; Pks13 thioesterase: 4.649%. N#Cc1ccccc1CN1C[C@@H]2CC[C@H](C1)N(CC1CCC1)C2=O gave MtTrpRS: 0.07246%; Pks13 thioesterase: -77.29%. Cc1nnc2n1CC(CNCc1nc(-c3ccsc3)no1)CC2 (configuration not stated) gave MtTrpRS: -5.462%; Pks13 thioesterase: -21.06%. With Cc1noc(C)c1CN1CCO[C@H]2CN(Cc3nccn3C)C[C@H]21 the screen gave MtTrpRS: -5.276%; Pks13 thioesterase: 5.567%. Result for CC(=O)c1cc(C(=O)N2CCN(C)Cc3ccccc32)n(C)c1 was MtTrpRS: -4.693%; Pks13 thioesterase: -18.73%. COc1ccc(CN(C)[C@@H]2CN(S(=O)(=O)C(C)C)C[C@H]2O)cc1 gave MtTrpRS: 1.562%; Pks13 thioesterase: -4.768%.

O=C(COC1CCCC1)NCCCn1nc2ccccn2c1=O read MtTrpRS: 2.175%; Pks13 thioesterase: 1.053%. For CNC(=O)[C@@H]1C[C@H]2CN(Cc3c(C)noc3C)C[C@H]2N1C(C)C the result was MtTrpRS: -5.969%; Pks13 thioesterase: -10.72%. For c1nc(N2CCOCC2)sc1-c1cncn1CCCN1CCCCC1 the result was MtTrpRS: 0.3264%; Pks13 thioesterase: -5.885%. Result for Cc1nc(CN2CCc3ncnc(C4CCOC4)c3CC2)cs1 (configuration not stated) was MtTrpRS: -6.784%; Pks13 thioesterase: 0.6757%. CCCc1cc(NCc2noc(COC)n2)n2nccc2n1 gave MtTrpRS: 3.494%; Pks13 thioesterase: -16.92%. With COc1cc(CNC(=O)NCCCF)cc(Br)c1OC the screen gave MtTrpRS: -1.066%; Pks13 thioesterase: -7.601%.

With Cc1cnn(CC2CN(Cc3cccc(C(N)=O)c3)CCO2)c1 (configuration not stated) the screen gave MtTrpRS: -1.168%; Pks13 thioesterase: -7.753%. COc1ccccc1N1CCN(CC[C@H](O)c2ccccc2)CC1=O gave MtTrpRS: -0.1006%; Pks13 thioesterase: -35.64%. CNC(=O)N1CCC2(CC1)CN(C)c1ccc(F)cc12 gave MtTrpRS: 3.004%; Pks13 thioesterase: -27.85%. CN1CCN(CCCNC(=O)CCc2nc3cc(Br)cnc3[nH]2)CC1 read MtTrpRS: -6.203%; Pks13 thioesterase: -1.437%. Cc1csc2ncnc(N3CCC(Cn4cc(C(C)(C)N)nn4)CC3)c12 gave MtTrpRS: -5.176%. CC(=O)N1CCC2(CC1)CN(CC(C)C)CC21CCNC1=O (configuration not stated) gave MtTrpRS: 7.842%; Pks13 thioesterase: -32.7%.

Result for CCc1nnc(CN(C)Cc2cccc(C(=O)Nc3cnn(C)c3)c2)o1 was MtTrpRS: -0.8942%; Pks13 thioesterase: 3.266%. CC(C)(C)c1ncc(CNc2ccccc2SCCC(N)=O)s1 gave MtTrpRS: 1.414%; Pks13 thioesterase: 4.245%. Result for COCCC1(C(=O)O)CCCN(C(=O)c2cc(C)oc2C)C1 (configuration not stated) was MtTrpRS: 0.4182%; Pks13 thioesterase: -37.76%. Cc1ccc(O)c(CN(CCCn2ccnc2)Cc2ccc(C)s2)c1 read MtTrpRS: 0.05798%; Pks13 thioesterase: -40.27%. For O=C(CN1CCCC1c1nc(-c2ccccn2)no1)N1CCNCC1 (configuration not stated) the result was MtTrpRS: 3.561%; Pks13 thioesterase: -14.81%. With CCN1CCCC1CNC(=O)CCSc1ccc2c(c1)OCCO2 (configuration not stated) the screen gave MtTrpRS: -4.354%; Pks13 thioesterase: -8.647%.

CN(Cc1ncnn1C)C(=O)CCCn1ccc2cc(Cl)ccc21 gave MtTrpRS: 0.9372%; Pks13 thioesterase: -4.968%. CCN1CCCCC1C(=O)Nc1cccc(-c2nnc[nH]2)c1 (configuration not stated) read MtTrpRS: 3.799%; Pks13 thioesterase: -15.41%. CS(=O)(=O)c1nccn1CCOc1ccc(F)cc1Cl gave MtTrpRS: 0.5201%; Pks13 thioesterase: -8.937%. With CS(=O)(=O)NC1CC(=O)N(c2ccccc2Cl)C1 (configuration not stated) the screen gave MtTrpRS: 1.699%; Pks13 thioesterase: -12.27%. CN(C)CCOCc1cncc2c1CCN(C1CCOCC1)C2 gave Pks13 thioesterase: 16.03%. Result for COCCNC(=O)NCC(C)c1ccccc1OC (configuration not stated) was MtTrpRS: -3.389%; Pks13 thioesterase: -0.5849%.

For reference, 3 entries once more:

Result for c1nc(N2CCOCC2)sc1-c1cncn1CCCN1CCCCC1 was MtTrpRS: 0.3264%; Pks13 thioesterase: -5.885%.
Result for CS(=O)(=O)NC1CC(=O)N(c2ccccc2Cl)C1 (configuration not stated) was MtTrpRS: 1.699%; Pks13 thioesterase: -12.27%.
Result for Cc1ccc(O)c(CN(CCCn2ccnc2)Cc2ccc(C)s2)c1 was MtTrpRS: 0.05798%; Pks13 thioesterase: -40.27%.

Measurements from “University of Dundee, Small-Polar-MMV Screening Library” (2021), ChEMBL document CHEMBL3988442.